Measured data: PubChem BioAssay AID504793 (Drosophila RNAi Screening Center, 2011)
The screen tested about 23,000 reagents; this is an unselected part of those that have a named target and a result. Of all reagents, 62 (0.27%) got an active call. 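Calls come from follow-up tests whose scores are not deposited, so confirmed genes may have low counts here; counts are not normalised per plate.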 The raw values are shown without normalisation. A number with no mark means an inactive call. Names joined by + are all predicted targets of the reagent.

- Screen: 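Knock-downs allowing continued mitosis even though DNA is damaged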 (primary screen)
- System: Drosophila S2R+ cells
- Reagents: long dsRNA against Drosophila genes, about 0.25 µg dsRNA per well
- Timing: 4 days of dsRNA, then 4 hours of drug before read-out
- Conditions: doxorubicin 0.5 µM for 4 hours to cause double-strand breaks, in cells also given a low, harmless dose of dsRNA against nbs to sensitise the assay
- Measured: 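Per-well count of mitotic cells stained for phospho-histone H3 after doxorubicin exposure, used as mitotic index; counts are raw and not normalised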
- Reading the numbers: mitotic cells: higher = more cells in mitosis, weaker G2 arrest
- Rule for the call: 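Genes are called active only when high mitotic counts were reproduced with independent dsRNAs and mitosis was checked for delay without damage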
- Calls: active = confirmed in follow-up tests; inactive = not confirmed

isoQC [DRSC11790] gave mitotic cells, replicate 1 = 3. With knock-down of isoQC [DRSC28241], the screen gave mitotic cells, replicate 1 = 7. With knock-down of Synd [DRSC15116] the results were mitotic cells, replicate 1 = 5. After knock-down of CG17048 [DRSC06649], the screen gave mitotic cells, replicate 1 = 12. Against haf [DRSC00381], the values are mitotic cells, replicate 1 = 3. CG15914 [DRSC19739] showed mitotic cells, replicate 1 = 4.

Silencing of Jon99Fii [DRSC15430] came out at: mitotic cells, replicate 1 = 10. Against CG8001 [DRSC08611], the values are mitotic cells, replicate 1 = 8. Der-1 [DRSC00301] gave mitotic cells, replicate 1 = 8. For snoRNA:U31:54Ec + snoRNA:snR38:54Eb + snoRNA:U27:54Eb + 8 more [DRSC06458] the deposit lists mitotic cells, replicate 1 = 6. CG13566 [DRSC04203] scored mitotic cells, replicate 1 = 2. CG13566 [DRSC25377] gave mitotic cells, replicate 1 = 8.

With knock-down of CG13557 [DRSC04195], the record shows mitotic cells, replicate 1 = 1. Against Prp6 [DRSC10724], the entry reads mitotic cells, replicate 1 = 8. For Prp6 [DRSC21773] the deposit lists mitotic cells, replicate 1 = 10.

2 entries already listed, arranged by “mitotic cells, replicate 1”, high to low:
CG17048 [DRSC06649] — mitotic cells, replicate 1: 12
Synd [DRSC15116] — mitotic cells, replicate 1: 5
